# According to PubChem BioAssay AID318 (DTP/NCI, 2004):
# The list is a part of this screen's results and no random one: it gathers tests that were run many times, whatever their T/C, doses with no T/C, and many T/C values between a quarter and a half above the control. Other doses and runs of a compound stand elsewhere. T/C: endpoint of the treated group in % of that of the vehicle group. Some doses have a count of surviving animals in place of a T/C: the source holds a T/C of zero for them, seemingly a mark for toxic or unscored doses. Some survivor counts are full or nearly so, which does not show that the dose was tolerated: survival well below the control is almost never listed, so the zero probably covers shortened survival too. Counts of survivors are from the toxicity check (mostly the fifth day) where no day follows; animals may have died later. Schedule codes are those of the source, taken here to give the interval after Q, in days (D) or hours (H), and the number of doses after X. Where survival is the endpoint, this PubChem deposit counts one and a half times the control or more as active, and values a quarter to a half above the control carry no call in these data; other NCI protocols may use other cut-offs. Starred links: 1 amine or outer side, 2 acyl side, 3 side chain; linkers in the order of their positions; H or OH if unused. Positions of bridges follow the written chain, without caps; N, C: chain ends. Non-standard residues stand in square brackets, D forms with d. Residues, ends and D or L forms follow the SMILES beside them. Chains are numbered I, II in the order given. Actinocin(9to1) = Cc1c2oc3c(C)ccc(C(=O)[*:1])c3nc-2c(C(=O)[*:2])c(N)c1=O; NMeV = CN[CH](C(=O)O)C(C)C; Aze = O=C(O)[CH]1CCN1; Sar = CNCC(=O)O
# Test system: BDF1 mice, P815 leukemia ip, survival T/C
# Assay: NCI In Vivo Anticancer Drug Screen. Data for tumor model P815 Mast Cell Leukemia (Ascitic) (intraperitoneal) in B6D2F1 (BDF1) mice
# Details: higher T/C = longer survival
# Protocol: The antitumor activity of compounds was measured in mice bearing transplantable tumors. Survival or tumor size were measured and the results are expressed as the measurement made in the treated group (T) divided by the measurement made in the vehicle treated control group (C). The tumor model used in this assay is P815 Mast Cell Leukemia (Ascitic) (intraperitoneal) in B6D2F1 (BDF1) mice
# [1] = T/C endpoint: survival time, mean or median, dose: 0.5 mg/kg/injection, schedule: Q01DX015 (ip), vehicle: saline
# [2] = T/C endpoint: survival time, mean or median, dose: 25.0 mg/kg/injection, schedule: Q01DX010 (ip), vehicle: saline
smiles,measurement,setting,value
COS(C)(=O)=O,survivor count,"T/C endpoint: survival time, mean or median, dose: 100.0 mg/kg/injection, schedule: Q01DX010 (ip), vehicle: saline",5 of 6
CC[n+]1c(-c2ccccc2)c2cc(N)ccc2c2ccc(N)cc21,T/C,[1],132 % of control
same,T/C,"T/C endpoint: survival time, mean or median, dose: 1.0 mg/kg/injection, schedule: Q01DX015 (ip), vehicle: saline",141 % of control
same,survivor count,"T/C endpoint: survival time, mean or median, dose: 20.0 mg/kg/injection, schedule: Q01DX015 (ip), vehicle: saline",10 of 10
same,survivor count,"T/C endpoint: survival time, mean or median, dose: 40.0 mg/kg/injection, schedule: Q01DX015 (ip), vehicle: saline",10 of 10
Nc1nc(=S)c2ncn(C3OC(CO)C(O)C3O)c2[nH]1 (centres undefined),T/C,"T/C endpoint: survival time, mean or median, dose: 4.0 mg/kg/injection, schedule: Q01DX010 (ip), vehicle: saline",144 % of control
same,T/C,"T/C endpoint: survival time, mean or median, dose: 8.0 mg/kg/injection, schedule: Q01DX010 (ip), vehicle: saline",144 % of control
same,T/C,"T/C endpoint: survival time, mean or median, dose: 16.0 mg/kg/injection, schedule: Q01DX010 (ip), vehicle: saline",133 % of control
NOCc1cscn1,survivor count,"T/C endpoint: median survival time, dose: 100.0 mg/kg/injection, schedule: Q01DX010 (ip), vehicle: saline sonified",6 of 6
same,survivor count,"T/C endpoint: median survival time, dose: 200.0 mg/kg/injection, schedule: Q01DX010 (ip), vehicle: saline sonified",2 of 6
"Cc1c2oc3c(C)ccc(C(=O)NC4C(=O)NC(C(C)C)C(=O)N5CCC5C(=O)N(C)CC(=O)N(C)C(C(C)C)C(=O)OC4C)c3nc-2c(C(=O)NC2C(=O)NC(C(C)C)C(=O)N3CCC3C(=O)N(C)CC(=O)N(C)C(C(C)C)C(=O)OC2C)c(N)c1=O (centres undefined) (I: TV[Aze][Sar][NMeV] / II: TV[Aze][Sar][NMeV]; ester I:1-I:C, II:1-II:C; linker I:N-II:N via Actinocin(9to1); configuration not given here)",survivor count,"T/C endpoint: median survival time, dose: 2080.0 micrograms/kg/injection, schedule: Q01DX001 (ip), vehicle: saline + alcohol",7 of 8
C[C@H](N)C(=O)N[C@@H]1[C@H]2C(=C(O)C[C@@H](O)[C@@H]2O)C(=O)O[C@@H]1C,T/C,"T/C endpoint: survival time, mean or median, dose: 300.0 mg/kg/injection, schedule: Q01DX010 (ip), vehicle: saline",127 % of control
same,T/C,"T/C endpoint: survival time, mean or median, dose: 600.0 mg/kg/injection, schedule: Q01DX010 (ip), vehicle: saline",144 % of control
CC[C@]1(O)C[C@H]2CN(CCc3c([nH]c4ccccc34)[C@@](C(=O)OC)(c3cc4c(cc3OC)N(C=O)[C@H]3[C@@](O)(C(=O)OC)[C@H](OC(C)=O)[C@]5(CC)C=CCN6CC[C@]43[C@@H]65)C2)C1,T/C,"T/C endpoint: survival time, mean or median, dose: 0.15 mg/kg/injection, schedule: Q01DX015 (ip), vehicle: saline",133 % of control
same,survivor count,[1],10 of 10
same,survivor count,"T/C endpoint: survival time, mean or median, dose: 0.75 mg/kg/injection, schedule: Q01DX015 (ip), vehicle: saline",10 of 10
same,survivor count,"T/C endpoint: survival time, mean or median, dose: 1.12 mg/kg/injection, schedule: Q01DX015 (ip), vehicle: saline",10 of 10
same,T/C,"T/C endpoint: survival time, mean or median, dose: 1.2 mg/kg/injection, schedule: Q01DX001 (ip), vehicle: saline",135 % of control
same,T/C,"T/C endpoint: survival time, mean or median, dose: 2.9 mg/kg/injection, schedule: Q01DX001 (ip), vehicle: saline",139 % of control
same,survivor count,"T/C endpoint: survival time, mean or median, dose: 6.5 mg/kg/injection, schedule: Q01DX001 (ip), vehicle: saline",8 of 10
same,T/C,"T/C endpoint: survival time, mean or median, dose: 38.0 micrograms/kg/injection, schedule: Q01DX015 (ip), vehicle: saline",137 % of control
same,T/C,"T/C endpoint: survival time, mean or median, dose: 50.0 micrograms/kg/injection, schedule: Q01DX015 (ip), vehicle: carboxymethylcellulose (CMC)",128 % of control
same,T/C,"T/C endpoint: survival time, mean or median, dose: 75.0 micrograms/kg/injection, schedule: Q01DX015 (ip), vehicle: saline",147 % of control
O=c1[nH]c(=O)n(C2CC(O)C(CO)O2)cc1F (centres undefined),T/C,"T/C endpoint: survival time, mean or median, dose: 80.0 mg/kg/injection, schedule: Q01DX010 (ip), vehicle: saline",144 % of control
C[N+](C)(C)c1ncnc2nc[nH]c12,survivor count,"T/C endpoint: survival time, mean or median, dose: 120.0 mg/kg/injection, schedule: Q01DX010 (ip), vehicle: saline",3 of 6
N=[N+]=CC(=O)OCC(N)C(=O)O (centres undefined),survivor count,[2],6 of 6
CCCNc1ncnc2[nH]ncc12,survivor count,[2],6 of 6
CS(=O)(=O)OCCC(=O)N1CCN(C(=O)CCOS(C)(=O)=O)CC1,T/C,"T/C endpoint: survival time, mean or median, dose: 12.5 mg/kg/injection, schedule: Q01DX010 (ip), vehicle: saline",144 % of control
same,T/C,[2],130 % of control
